Source: PubChem BioAssay AID445 (National Center for Advancing Translational Sciences (NCATS), 2006)
This is one part of the list. Shown are side measurements of this screen, not its main read-out; they come without a call. The list favours compounds with an active or inconclusive main result. The note in brackets gives the kind of curve behind each potency; many fits are weak.

Assay: IkB Signaling
Conditions: ABC-DLBCL IkBa-CBG/CBR dual luciferase ratio (green luciferase fused to IkBa over red control in OCI-Ly3 lymphoma cells), 4 h; measured here: control luc red channel unless noted
Outline: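 Luminescence ratio of IκBα-fused green versus native red beetle luciferase in OCI-Ly3 cells, 4 h post-doxycycline with compound; red signal alone, scaled from basal (0%) to zero light (-100%), flagged nonspecific or cytotoxic effects.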

| SMILES | AC50 |
| --- | --- |
| CCc1ccccc1NC(=O)c1sc2nc3n(c(=O)c2c1C)CCC3 | 7.94 µM [falling, partial curve] |
| CCOc1ccccc1NC(=O)c1ccc2c(Cl)c3c(nc2c1)CCCC3 | 0.631 µM [falling, full curve] |
| COc1cccc(CNc2nc3c(-c4cccc(C)c4)nnn3c3ccccc23)c1 | 0.398 µM [falling, full curve] |
| CCOc1ccc(-c2nnc(SCC(=O)NCCc3ccccc3)nc2-c2ccc(OCC)cc2)cc1 | 0.126 µM [falling, full curve] |
| CC(=O)Nc1ccc(NC(=O)CCC(=O)c2ccc(C)cc2)cc1 | 3.98 µM [rising, single point] |
| CC(=O)c1cccc(NC(=O)c2c(C)nn(-c3ccc(F)cc3)c2-n2cccc2)c1 | 39.8 µM [falling, single point] |
| CCCCCN1C(C(=O)c2ccccc2)=C(NC(C)=O)c2ccccc2S1(=O)=O | 20 µM [falling, partial curve] |
| O=C(CSc1ncc2c(n1)-c1cc(Cl)ccc1N(Cc1ccccc1F)S2(=O)=O)Nc1cccc(C(F)(F)F)c1 | 12.6 µM [falling, partial curve] |
| O=C(C1CC1)N1CCN(c2nc3c(F)cc(F)cc3s2)CC1 | 5.01 µM [rising, partial curve] |
| COc1cccc2c1[C@H](CO)N1[C@H](C#N)[C@@H]3C[C@H](C(=O)O)[C@@H]([C@@H]1C2)N3C | 0.316 µM [falling, full curve] |
| Cc1cc(Cl)ccc1OCC(=O)N(Cc1ccc(N(C)C)cc1)CC1CCCO1 (centres undefined) | 15.8 µM [falling, partial curve] |
| O=C(O)c1ccc2c(c1)N(Cc1ccc(F)cc1Cl)C(=O)c1ccccc1S2 | 25.1 µM [falling, partial curve] |
| O=C(CSc1nnc(NC(=O)c2ccco2)s1)NC1CCCCC1 | 0.631 µM [falling, full curve] |
| COc1ccc(NC(=O)CCS(=O)(=O)c2nc(-c3ccc4c(c3)OCO4)cc(C(F)(F)F)n2)c(OC)c1 | 5.01 µM [falling, partial curve] |
| Cc1ccc(-n2c(C)nc3oc4ccccc4c(=O)c3c2=O)cc1 | 0.02 µM [falling, full curve] |
| CCOC(=O)c1ccc(NC(=O)CSc2nc(SC)ns2)cc1 | 25.1 µM [falling, partial curve] |
| O=C(c1cc(-c2ccccc2)on1)N1CCN(C(=O)c2ccco2)CC1 | 20 µM [falling, partial curve] |
| CCN(C(=O)c1cnc(N2CCOCC2)c2ccccc12)c1cc(C)ccc1C | 0.158 µM [falling, full curve, poor fit] |
| O=C(c1ccc2c(c1)N(Cc1ccccc1)C(=O)c1ccccc1S2=O)N1CCC(Cc2ccccc2)CC1 (centres undefined) | 1 µM [falling, partial curve] |
| CCCOc1ccc(C2=NC(c3ccc(F)cc3)=Nc3ccc(OC)cc3N2)cc1 | 39.8 µM [falling, single point] |
| O=C(Oc1ccnc2cc(Cl)ccc12)N1CCCCCC1 | 12.6 µM [falling, partial curve] |
| COc1ccccc1CNC(=O)c1ccc2c(c1)CCN2S(=O)(=O)c1ccc(Cl)cc1 | 10 µM [falling, partial curve] |

| SMILES | AC50 |
| --- | --- |
| Clc1ccc(Nc2ncnc3c2cnn3-c2ccccc2)cc1 | 31.6 µM [falling, single point] |
| COc1ccc2nc(N(Cc3cccnc3)C(=O)COc3ccccc3)sc2c1 | 3.16 µM [rising, partial curve] |
| Cc1cccc(S(=O)Cc2ccc(C(=O)NC3CCCCCC3)o2)c1 (centres undefined) | 6.31 µM [falling, partial curve] |
| CCn1c(C(=O)N2CCCC(C(=O)NCCCc3ccccc3)C2)cc2sccc21 (centres undefined) | 12.6 µM [falling, partial curve] |
| Cc1c(-c2ccccc2)n(-c2ccccc2O)c2nc3c(c(=O)n(C)c(=O)n3C)n12 | 20 µM [falling, partial curve] |
| Clc1ccc(Nc2c(-c3ccccc3Cl)nc3ccc(Cl)cn23)cc1 | 6.31 µM [falling, partial curve] |
| Cc1ccc(C(=O)Nc2cccc(C(=O)OCc3cc(=O)n4nc(C5CC5)sc4n3)c2)cc1 | 0.158 µM [falling, full curve] |
| COCC(C)Nc1ncnc2c1cnn2-c1ccc(C)c(C)c1 (centres undefined) | 25.1 µM [falling, single point] |
| CCOc1ccc(N2CC(NC(=O)C3CC3)CC2=O)cc1 (centres undefined) | 7.94 µM [falling, single point] |
| Cc1ccnc(NC(=O)CSc2cc(=O)n(C)c3ccccc23)c1 | 3.16 µM [falling, full curve] |
| CCCCN(CC)CCCNC(=O)Cn1ncc2c3ccccc3n(Cc3ccc(F)cc3)c2c1=O | 12.6 µM [falling, single point] |
| O=C(Cn1nnc2c(cnn2-c2ccc(F)cc2)c1=O)OC1CCCCC1 | 31.6 µM [falling, partial curve] |
| Cc1ccc(CN2CCCn3nc(C(=O)NCCc4cccc(C)c4)cc3C2=O)cc1 | 7.94 µM [falling, partial curve] |
| Cc1nn(C)c2c1c(-c1ccccc1)cc(=O)n2CC(=O)NC(C)C | 6.31 µM [rising, single point] |
| COc1ccc(CCNCc2ccc3c(c2)n(C)c(=O)n3C)cc1OC | 15.8 µM [rising, partial curve] |
| CCc1ccccc1NC(=O)Cn1c(SCc2ccc(F)cc2)nc2ccncc21 | 12.6 µM [falling, partial curve] |
| O=[N+]([O-])c1cc(-c2nc(-c3ccccc3)no2)ccc1N1CCOCC1 | 15.8 µM [falling, partial curve] |
| COc1ccc(-c2nc(CCNC(=O)c3ccc(Br)o3)cs2)cc1 | 25.1 µM [falling, single point] |
| COC(=O)c1[nH]c2ccccc2c1NC(=O)CN1CCN(c2cccc(OC)c2)C(C)C1 (centres undefined) | 15.8 µM [falling, partial curve] |
| COc1ccc(-c2nc(CNS(=O)(=O)c3cccc(F)c3)cs2)cc1 | 20 µM [falling, partial curve] |
| O=c1oc2ccccc2cc1-c1nc2ccccc2o1 | 10 µM [falling, partial curve] |
| Cc1ccc(Nc2sc(C(=O)c3ccccc3)c(N)c2C(N)=O)cc1 | 10 µM [rising, partial curve, poor fit] |

Quoted at random: five entries already listed

| SMILES | AC50 |
| --- | --- |
| Cc1ccc(CN2CCCn3nc(C(=O)NCCc4cccc(C)c4)cc3C2=O)cc1 | 7.94 µM [falling, partial curve] |
| CCCCN(CC)CCCNC(=O)Cn1ncc2c3ccccc3n(Cc3ccc(F)cc3)c2c1=O | 12.6 µM [falling, single point] |
| Clc1ccc(Nc2ncnc3c2cnn3-c2ccccc2)cc1 | 31.6 µM [falling, single point] |
| COc1ccc(-c2nc(CCNC(=O)c3ccc(Br)o3)cs2)cc1 | 25.1 µM [falling, single point] |
| O=[N+]([O-])c1cc(-c2nc(-c3ccccc3)no2)ccc1N1CCOCC1 | 15.8 µM [falling, partial curve] |

Further structures follow.

| SMILES | AC50 |
| --- | --- |
| O=C(Nc1ccc2c(c1)OCCO2)c1c(F)c(F)c(F)c(F)c1F | 3.16 µM [falling, partial curve] |
| CCc1nn(CC(=O)Nc2ccc(NC(C)=O)cc2)c(=O)c2cc3sccc3n12 | 3.98 µM [rising, full curve] |
| O=C(Cn1cnc2onc(-c3ccc(Cl)cc3)c2c1=O)Nc1ccc(F)cc1 | 3.16 µM [falling, partial curve] |
| O=C(Oc1ccc(-c2ccccc2)cc1)N1CCOCC1 | 20 µM [falling, single point] |
| CC(C)n1c(NCc2c[nH]c3ccccc23)nc2ccccc21 | 15.8 µM [falling, partial curve] |
| CCOC(=O)c1ccc(N2C(=O)c3n[nH]c(-c4ccco4)c3C2c2cccc(O)c2)cc1 (centres undefined) | 15.8 µM [falling, partial curve] |
| Cc1ccccc1CCNC(=O)c1ccc2c(c1)nc1n2CCCCC1 | 0.0126 µM [falling, full curve, poor fit] |
| Cc1ccc(-c2nc3ccccc3o2)cc1NC(=O)Cc1ccc(Cl)cc1 | 25.1 µM [falling, partial curve, poor fit] |
| Cc1cccc(-c2nc(CN3CCCC(C(=O)NCCc4ccc(Cl)cc4)C3)c(C)o2)c1 (centres undefined) | 25.1 µM [falling, partial curve] |
| COC(=O)c1ccccc1NC(=O)CSc1nc(C)c(Cl)c(C)c1C#N | 12.6 µM [falling, partial curve] |
| O=[N+]([O-])c1cccc(/C=N\Nc2ccc3ccccc3n2)c1O | 0.0126 µM [falling, full curve] |
| CCOC(=O)c1cccc(NC(=O)c2cnc3sc(N4CCOCC4)nn3c2=O)c1 | 3.98 µM [falling, partial curve] |
| O=C(Nc1cccc(F)c1)N1CC=C(n2c(=O)[nH]c3ccccc32)CC1 | 12.6 µM [falling, partial curve] |
| O=C(NCc1ccccc1)C(=O)Nc1c2c(nn1-c1ccccc1)CSC2 | 39.8 µM [falling, single point] |
| Cc1ccc(C(c2c(O)cc(C)n(Cc3ccco3)c2=O)N2CCC(C)CC2)cc1 (centres undefined) | 1 µM [falling, partial curve] |
| O=C(Nc1cc2c(cc1C(=O)c1ccccc1Br)OCCO2)c1cccc(Cl)c1 | 31.6 µM [falling, partial curve, poor fit] |
| COc1ccc(N2C(=O)CSC23C(=O)N(Cc2cccc(F)c2)c2ccccc23)cc1Cl (centres undefined) | 15.8 µM [falling, partial curve] |
| CC1(C)Cc2c(C#N)c(N)sc(=S)c2CS1 | 39.8 µM [rising, single point] [measured here: IkB-luc green channel] |
| Cc1nc(-n2nc(C)c(CCC(C)C)c2C)sc1C(=O)Nc1ccc(Cl)cc1 | 1 µM [falling, full curve, poor fit] |
| CCC(C)NC(=O)c1sc2nc(C)c(C(=O)Nc3ccc(C)cc3C)c(-c3ccc(NC(C)=O)cc3)c2c1N (centres undefined) | 31.6 µM [falling, partial curve] |
